These are yes or no findings as the source states them, for the method shown. For some of these results: Binding seen in cells or lysates may run through a third protein. Some results given as binding are weak or reduced against the parent protein; the word gives no strength.

Sequences of proteins named here, by UniProt entry; tags and fusion partners are left off. Residues count along the entry.
UniProt Q9HB71, residues 2-228: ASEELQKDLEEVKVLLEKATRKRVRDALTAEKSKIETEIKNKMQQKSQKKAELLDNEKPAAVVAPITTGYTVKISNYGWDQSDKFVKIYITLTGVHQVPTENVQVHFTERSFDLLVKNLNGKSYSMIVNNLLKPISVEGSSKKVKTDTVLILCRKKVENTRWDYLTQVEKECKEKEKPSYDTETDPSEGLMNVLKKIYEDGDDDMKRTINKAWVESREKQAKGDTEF
UniProt O60437: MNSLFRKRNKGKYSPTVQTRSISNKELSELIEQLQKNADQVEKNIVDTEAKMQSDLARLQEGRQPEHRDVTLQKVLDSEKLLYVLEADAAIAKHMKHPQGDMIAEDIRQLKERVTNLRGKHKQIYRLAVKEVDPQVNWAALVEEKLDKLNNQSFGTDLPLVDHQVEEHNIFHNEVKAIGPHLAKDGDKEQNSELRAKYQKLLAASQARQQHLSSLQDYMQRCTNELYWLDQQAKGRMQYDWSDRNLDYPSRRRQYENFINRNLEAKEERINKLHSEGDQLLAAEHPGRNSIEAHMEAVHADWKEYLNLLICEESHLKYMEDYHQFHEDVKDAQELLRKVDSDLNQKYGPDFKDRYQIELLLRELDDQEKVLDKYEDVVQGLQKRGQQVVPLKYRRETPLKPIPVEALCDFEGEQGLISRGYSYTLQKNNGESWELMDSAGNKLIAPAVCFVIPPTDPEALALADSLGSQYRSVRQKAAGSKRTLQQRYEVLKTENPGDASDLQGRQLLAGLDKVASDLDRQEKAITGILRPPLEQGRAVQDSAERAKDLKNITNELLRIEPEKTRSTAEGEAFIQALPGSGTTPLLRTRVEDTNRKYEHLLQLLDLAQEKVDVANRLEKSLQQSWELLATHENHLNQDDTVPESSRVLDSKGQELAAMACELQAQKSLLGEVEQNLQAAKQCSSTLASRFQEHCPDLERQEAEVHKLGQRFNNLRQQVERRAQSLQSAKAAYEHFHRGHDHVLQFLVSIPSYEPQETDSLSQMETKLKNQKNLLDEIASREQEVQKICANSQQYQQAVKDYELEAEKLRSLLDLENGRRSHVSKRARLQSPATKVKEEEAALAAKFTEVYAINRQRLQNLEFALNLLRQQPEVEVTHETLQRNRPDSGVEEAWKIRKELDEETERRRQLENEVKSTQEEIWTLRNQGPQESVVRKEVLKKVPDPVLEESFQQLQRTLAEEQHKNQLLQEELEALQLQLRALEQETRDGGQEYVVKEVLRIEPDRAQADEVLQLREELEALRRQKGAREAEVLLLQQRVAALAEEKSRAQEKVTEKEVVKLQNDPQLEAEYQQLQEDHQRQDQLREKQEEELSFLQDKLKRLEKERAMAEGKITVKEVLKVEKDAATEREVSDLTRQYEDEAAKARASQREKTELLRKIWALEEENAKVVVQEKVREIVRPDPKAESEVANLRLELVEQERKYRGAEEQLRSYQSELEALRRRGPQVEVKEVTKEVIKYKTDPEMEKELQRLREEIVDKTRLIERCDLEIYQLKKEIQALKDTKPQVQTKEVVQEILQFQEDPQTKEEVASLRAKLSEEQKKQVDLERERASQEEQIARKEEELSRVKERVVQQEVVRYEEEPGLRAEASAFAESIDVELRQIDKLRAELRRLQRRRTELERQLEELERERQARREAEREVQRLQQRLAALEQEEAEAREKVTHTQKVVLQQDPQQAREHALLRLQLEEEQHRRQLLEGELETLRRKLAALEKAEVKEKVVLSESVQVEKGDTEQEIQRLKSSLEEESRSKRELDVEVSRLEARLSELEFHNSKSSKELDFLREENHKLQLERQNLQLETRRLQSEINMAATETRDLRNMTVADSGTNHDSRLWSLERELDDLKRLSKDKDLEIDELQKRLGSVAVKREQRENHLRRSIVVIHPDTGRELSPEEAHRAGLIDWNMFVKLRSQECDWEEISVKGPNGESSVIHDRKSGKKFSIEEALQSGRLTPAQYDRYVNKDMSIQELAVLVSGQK
UniProt Q92817: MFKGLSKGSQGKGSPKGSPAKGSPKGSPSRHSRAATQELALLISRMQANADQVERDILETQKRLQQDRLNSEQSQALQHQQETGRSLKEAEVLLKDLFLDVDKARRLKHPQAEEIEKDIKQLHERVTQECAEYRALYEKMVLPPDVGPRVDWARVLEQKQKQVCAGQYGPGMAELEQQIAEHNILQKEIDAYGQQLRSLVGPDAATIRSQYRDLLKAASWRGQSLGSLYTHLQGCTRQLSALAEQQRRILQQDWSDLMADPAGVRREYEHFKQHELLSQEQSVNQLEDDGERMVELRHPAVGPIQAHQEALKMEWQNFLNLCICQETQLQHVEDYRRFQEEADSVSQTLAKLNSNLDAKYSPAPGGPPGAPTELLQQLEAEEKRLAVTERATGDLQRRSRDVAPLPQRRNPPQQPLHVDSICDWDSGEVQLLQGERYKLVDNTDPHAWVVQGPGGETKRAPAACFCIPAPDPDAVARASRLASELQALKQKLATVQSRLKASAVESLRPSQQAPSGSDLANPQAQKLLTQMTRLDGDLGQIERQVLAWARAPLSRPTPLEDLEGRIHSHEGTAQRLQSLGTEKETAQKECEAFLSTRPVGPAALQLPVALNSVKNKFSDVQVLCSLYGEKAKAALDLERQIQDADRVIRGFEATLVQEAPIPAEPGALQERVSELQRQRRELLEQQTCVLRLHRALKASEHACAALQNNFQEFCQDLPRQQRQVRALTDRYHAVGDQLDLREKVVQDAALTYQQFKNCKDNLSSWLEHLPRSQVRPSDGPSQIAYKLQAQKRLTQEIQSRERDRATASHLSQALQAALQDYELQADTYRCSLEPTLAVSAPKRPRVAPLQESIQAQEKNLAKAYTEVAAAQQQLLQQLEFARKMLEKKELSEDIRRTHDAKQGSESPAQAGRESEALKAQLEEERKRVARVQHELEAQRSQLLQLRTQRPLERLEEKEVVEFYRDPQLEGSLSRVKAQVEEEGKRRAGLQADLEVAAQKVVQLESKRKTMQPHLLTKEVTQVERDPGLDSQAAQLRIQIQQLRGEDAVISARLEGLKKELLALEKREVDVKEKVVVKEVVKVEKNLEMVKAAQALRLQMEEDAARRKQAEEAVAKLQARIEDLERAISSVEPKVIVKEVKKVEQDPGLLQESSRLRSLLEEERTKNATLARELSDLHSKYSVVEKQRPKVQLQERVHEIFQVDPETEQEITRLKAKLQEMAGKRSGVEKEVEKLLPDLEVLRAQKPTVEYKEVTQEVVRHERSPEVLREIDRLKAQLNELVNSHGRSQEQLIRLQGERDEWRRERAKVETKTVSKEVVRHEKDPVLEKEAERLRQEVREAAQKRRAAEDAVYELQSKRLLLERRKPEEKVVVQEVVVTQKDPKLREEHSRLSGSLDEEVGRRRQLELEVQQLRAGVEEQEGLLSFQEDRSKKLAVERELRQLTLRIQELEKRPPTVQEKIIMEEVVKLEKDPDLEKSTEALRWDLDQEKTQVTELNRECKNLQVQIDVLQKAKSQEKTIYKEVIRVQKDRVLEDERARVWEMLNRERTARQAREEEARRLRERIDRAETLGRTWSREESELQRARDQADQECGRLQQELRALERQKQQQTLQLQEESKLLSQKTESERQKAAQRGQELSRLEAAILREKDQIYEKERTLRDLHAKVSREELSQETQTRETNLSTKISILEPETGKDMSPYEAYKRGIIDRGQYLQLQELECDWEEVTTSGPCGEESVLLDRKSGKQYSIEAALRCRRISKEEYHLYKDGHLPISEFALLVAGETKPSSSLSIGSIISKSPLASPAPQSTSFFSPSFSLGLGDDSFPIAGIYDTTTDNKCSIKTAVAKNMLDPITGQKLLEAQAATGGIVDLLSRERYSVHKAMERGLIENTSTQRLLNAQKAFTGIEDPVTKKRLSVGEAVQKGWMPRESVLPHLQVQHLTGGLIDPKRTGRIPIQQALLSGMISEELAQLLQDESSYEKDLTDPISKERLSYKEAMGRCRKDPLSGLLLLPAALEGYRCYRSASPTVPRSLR
UniProt Q08AI8: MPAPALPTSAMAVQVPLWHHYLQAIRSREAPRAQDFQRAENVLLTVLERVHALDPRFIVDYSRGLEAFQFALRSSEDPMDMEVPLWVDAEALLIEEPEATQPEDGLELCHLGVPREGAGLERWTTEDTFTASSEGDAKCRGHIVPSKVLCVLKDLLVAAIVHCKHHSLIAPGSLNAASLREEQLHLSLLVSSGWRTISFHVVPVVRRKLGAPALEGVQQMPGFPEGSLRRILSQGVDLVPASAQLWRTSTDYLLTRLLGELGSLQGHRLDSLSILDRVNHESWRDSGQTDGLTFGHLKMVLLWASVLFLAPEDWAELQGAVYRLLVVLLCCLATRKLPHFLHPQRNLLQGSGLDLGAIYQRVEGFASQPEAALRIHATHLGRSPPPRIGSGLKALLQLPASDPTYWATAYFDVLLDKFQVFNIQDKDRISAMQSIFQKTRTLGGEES

The source of these data is patent US20210023083A1.

In assay [1] the target is calcyclin-binding protein (CacyBP) (human) (UniProt Q9HB71). Briefly: BioID in organotypic human epidermal tissue.
Assay [2] concerns the target periplakin (human) (UniProt O60437). Briefly: PLA of endogenous periplakin and HA in skin organoids expressing HA-MAB21L4 (FIG. 9c,d).
Assay [3] has as its target calcyclin-binding protein (CacyBP) (human) (UniProt Q9HB71). Put plainly: PLA (HA / CacyBP) and anti-FLAG co-immunoprecipitation with western blot, human skin organoids.
Assay [4] has as its target envoplakin (human) (UniProt Q92817). Briefly: PLA of endogenous envoplakin and HA in skin organoids expressing HA-MAB21L4 (FIG. 9a,b).

As to “3×HA-BASU-MAB21L4 fusion protein (from UniProt Q08AI8 1-447)”, the binding entry in assay [1] is “binds”.

Turning to “FLAG-HA-6×HIS (FHH)-MAB21L4 (from UniProt Q08AI8 1-447)”, the binding result in assay [2], in assay [3] and in assay [4] was “binds” throughout.
